Data: US5710123A, “Peptide inhibitors of selectin binding” (Centocor, Inc., priority 1995, dated 1998)
At least one compound was matched to its structure with a doubt left.

Target: T1, P-selectin (Homo sapiens, UniProt P16109)
T1 construct: from tissue; host or cells: outdated human platelet packs from a blood bank
T1 sequence (P16109 42-830): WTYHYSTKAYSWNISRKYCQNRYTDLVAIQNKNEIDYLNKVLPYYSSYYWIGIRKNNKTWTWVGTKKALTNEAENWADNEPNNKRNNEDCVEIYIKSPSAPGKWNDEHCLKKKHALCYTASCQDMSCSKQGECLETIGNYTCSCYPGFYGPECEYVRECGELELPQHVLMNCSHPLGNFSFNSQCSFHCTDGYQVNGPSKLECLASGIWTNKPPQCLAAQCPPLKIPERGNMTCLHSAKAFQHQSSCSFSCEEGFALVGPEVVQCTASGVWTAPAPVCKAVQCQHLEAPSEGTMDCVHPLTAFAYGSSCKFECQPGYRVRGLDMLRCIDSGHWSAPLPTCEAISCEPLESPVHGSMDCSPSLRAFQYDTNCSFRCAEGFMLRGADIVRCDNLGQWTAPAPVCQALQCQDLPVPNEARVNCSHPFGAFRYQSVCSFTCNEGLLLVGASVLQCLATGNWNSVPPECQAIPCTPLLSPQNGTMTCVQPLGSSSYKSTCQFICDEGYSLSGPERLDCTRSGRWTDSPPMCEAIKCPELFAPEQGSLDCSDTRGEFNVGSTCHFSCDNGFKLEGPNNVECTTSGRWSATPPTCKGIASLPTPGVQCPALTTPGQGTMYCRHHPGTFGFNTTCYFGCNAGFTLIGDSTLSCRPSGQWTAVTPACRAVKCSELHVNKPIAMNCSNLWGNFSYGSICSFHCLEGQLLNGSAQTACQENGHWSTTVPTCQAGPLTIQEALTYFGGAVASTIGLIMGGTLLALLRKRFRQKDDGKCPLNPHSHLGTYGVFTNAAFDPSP
Test: Inhibition of binding of human neutrophils to P-selectin (neutrophil adhesion to purified immobilized P-selectin, myeloperoxidase readout)
Format: cell-based
Details: P-selectin purified from human platelets, plated at 5 micrograms/mL, peptides tested 1.0 mM to 0.001 mM
Text: Peptides can be screened for their ability to inhibit adhesion to cells, for example, neutrophil adhesion to purified P-selectin immobilized on plastic wells, using the assay described by Geng, et al., Nature 343, 757-760 1990). Human neutrophils are isolated from heparinized […] blood by density gradient centrifugation on Mono-Poly resolving media, Flow Laboratories. Neutrophil suspensions are greater than 98% pure and greater than 95% viable by trypan blue exclusion. For adhesion assays, neutrophils are suspended at a concentration of 2×10^6 cells/mL in Hanks' balanced salt solution containing 1.26 mM Ca^2+ and 0.81 mM Mg^2+ (HBSS, Gibco) with […] human serum albumin (HBSS/HSA). Adhesion assays are conducted in triplicate in 96-well microtiter plates, Corning, incubated at 4° C. overnight with 50 microliters of various protein solutions. P-selectin is isolated from human platelet lysates by immunoaffinity chromatography on antibody S12-Sepharose™ and ion-exchange chromatography on a Mono-Q™ column (FLPC, Pharmacia Fine Chemicals), as follows. […] Peak fractions with absorbance at 280 nm are pooled. […]

Q: “H-SRARLALCY-NH2 [SEQ ID NO: 62, SRARLALCY--NH2]” was tested. Which IC50 did it give?
A: Its IC50 is 34 µM.
